Test results reported in BindingDB's records for doi:10.1016/s0014-2999(99)00610-x (Hungarian Academy of Sciences, 1999).

Chains of the proteins cited; added tags and fusions are not shown.
UniProt P33533, whole entry: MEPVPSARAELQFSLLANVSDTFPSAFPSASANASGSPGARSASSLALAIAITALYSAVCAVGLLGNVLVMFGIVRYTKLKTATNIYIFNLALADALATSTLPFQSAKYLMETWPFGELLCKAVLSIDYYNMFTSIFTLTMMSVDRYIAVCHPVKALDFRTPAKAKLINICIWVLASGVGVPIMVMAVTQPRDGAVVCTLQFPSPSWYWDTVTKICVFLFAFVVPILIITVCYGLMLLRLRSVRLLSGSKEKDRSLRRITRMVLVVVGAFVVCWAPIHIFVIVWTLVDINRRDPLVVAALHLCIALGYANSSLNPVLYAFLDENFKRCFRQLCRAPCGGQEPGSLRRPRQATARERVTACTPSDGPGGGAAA

Target: Delta-type opioid receptor (Rattus norvegicus, UniProt P33533)

Compound: CC[C@H](C)[C@H](NC(=O)[C@H](CCC(=O)O)NC(=O)[C@H](Cc1ccccc1)NC(=O)[C@@H](C)NC(=O)[C@@H](N)Cc1ccc(O)cc1)C(=O)N[C@H](C(=O)NCC(N)=O)[C@@H](C)CC [(S)-4-((S)-2-{(R)-2-[(S)-2-Amino-3-(4-hydroxy-phenyl)-propionylamino]-propionylamino}-3-phenyl-propionylamino)-4-{(1S,2S)-1-[(1S,2S)-1-(carbamoylmethyl-carbamoyl)-2-methyl-butylcarbamoyl]-2-methyl-butylcarbamoyl}-butyric acid]
- Ki: 1900 nM
